Assay results reported in PMC11252414.
For at least one entry, the source does not settle the construct or the ends of the probe.

The chains behind the UniProt entries cited, without tags or fusion partners. Residues count along the entry.
UniProt P24627, 20-708: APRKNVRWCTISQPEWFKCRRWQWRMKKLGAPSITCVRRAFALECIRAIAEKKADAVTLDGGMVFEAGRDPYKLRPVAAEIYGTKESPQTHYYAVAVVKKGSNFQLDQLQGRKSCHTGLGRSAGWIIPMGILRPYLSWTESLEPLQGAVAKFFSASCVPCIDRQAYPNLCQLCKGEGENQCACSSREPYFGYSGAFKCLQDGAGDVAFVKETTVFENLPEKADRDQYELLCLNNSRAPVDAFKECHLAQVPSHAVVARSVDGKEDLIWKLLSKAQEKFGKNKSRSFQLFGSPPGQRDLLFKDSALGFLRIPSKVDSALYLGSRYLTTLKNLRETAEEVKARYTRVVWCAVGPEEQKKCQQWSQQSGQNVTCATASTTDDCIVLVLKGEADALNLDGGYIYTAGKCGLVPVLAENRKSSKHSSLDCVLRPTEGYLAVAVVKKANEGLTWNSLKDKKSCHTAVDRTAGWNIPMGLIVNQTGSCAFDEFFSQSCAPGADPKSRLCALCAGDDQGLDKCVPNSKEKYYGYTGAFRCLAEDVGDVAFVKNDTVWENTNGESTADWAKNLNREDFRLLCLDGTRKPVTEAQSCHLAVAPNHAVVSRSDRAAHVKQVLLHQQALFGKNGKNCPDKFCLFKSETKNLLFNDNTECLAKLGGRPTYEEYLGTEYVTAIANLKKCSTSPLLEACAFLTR

Biological target: lactoferrin (LF) (bovine (milk)) (UniProt P24627)
Test: Ag nanoparticle-enhanced SPR imaging
Conditions: cited selection value; 3'-amino, coupled via NHS/EDC to carboxylated porous Si; Selection buffer: PBS (137 mM NaCl, 10 mM Na2HPO4, 2.7 mM KCl, 2 mM KH2PO4) + 1 mM MgCl2, pH 7.4, room temperature; GI fluid at 37 C; commercial protein; single-stranded DNA

CAGGCAGGACACCGTAACCGGTGCATCTATGGCTACTAGCTCTTCCTGCCTATTTTTTTTTT [Lac 9-2 anti-LF aptamer with T10 spacer]
Kd: 1.12 nM
